Assay results published in US11169443B2, “Gap filling composition and pattern forming method using low molecular weight compound” (AZ Electronic Materials (Luxembourg) S.a.r.l., priority 2016, dated 2021).

Tests used:
[1] = Evaluation of application property (coatability); set-up: key: A: uniform coating was formed; B: coating was formed but contained plaque; C: coating was not formed; settings: for coatability after dissolution into IPA: 20% in IPA; for coatability after dissolution into IPA / coatability after dissolution into PGME / coatability after dissolution into water: 1000 rpm; for coatability after dissolution into IPA:water = 7:3: 20% in IPA:water = 7:3, 1000 rpm; for coatability after dissolution into PGME: 20% in PGME; for coatability after dissolution into water: 20% in water
[2] = Evaluation of residue (film thickness after application and after bake)
[3] = Evaluation of pattern collapse rate (composition removed by heating); settings: relative to water
[4] = Pattern collapse rate, removal of composition by reduced pressure
[5] = 20% in IPA:water = 7:3, after application
[6] = 20% in IPA:water = 7:3, heated at 250° C. for 180 seconds
[7] = 20% in IPA, heated at 250° C. for 180 seconds
[8] = liquid alone, no gap filling compound, not heated, dried by spin dry

| Compound | coatability after dissolution into IPA [1] | coatability after dissolution into IPA:water = 7:3 [1] | coatability after dissolution into PGME [1] | coatability after dissolution into water [1] | post-bake thickness of residual film 110° C./60 s ([2]; 20% in IPA) [μm] | post-bake thickness of residual film 130° C./60 s ([2]; 20% in IPA) [μm] | film thickness ([2]; 20% in IPA, after application) [μm] | post-bake thickness of residual film 110° C./60 s ([2]; 20% in IPA:water = 7:3) [μm] | post-bake thickness of residual film 130° C./60 s ([2]; 20% in IPA:water = 7:3) [μm] | film thickness [2, 5] [μm] | post-bake thickness of residual film 110° C./60 s ([2]; 20% in PGME) [μm] | post-bake thickness of residual film 130° C./60 s ([2]; 20% in PGME) [μm] | film thickness ([2]; 20% in PGME, after application) [μm] | pattern collapse rate [3, 6] [%] | pattern collapse rate [3, 7] [%] | pattern collapse rate ([4]; 22% in IPA, reduced pressure 6.6 kPa/300 s) [%] | pattern collapse rate ([4]; 25% in PGME, reduced pressure 5.3 kPa/301 s) [%] | pattern collapse rate [3, 8] [%] |
| --- | --- | --- | --- | --- | --- | --- | --- | --- | --- | --- | --- | --- | --- | --- | --- | --- | --- | --- |
| CCC(O)CCO (stereo not shown) [1,3-pentanediol] | A | A | A | C | 0 | 0 | 1.3 | 0 | 0 | 1.3 | 0 | 0 | 1.3 | 4 | 5 | – | – | – |
| OCCCCO [1,4-butanediol] | A | A | A | C | 0 | 0 | 1.2 | 0 | 0 | 1.2 | 0 | 0 | 1.2 | 3 | 6 | 0 | – | – |
| OCCCCCO [1,5-pentanediol] | A | A | A | C | 0 | 0 | 1.2 | 0 | 0 | 1.2 | 0 | 0 | 1.2 | 7 | 6 | – | 0 | – |
| CC(C)(O)CC(C)(C)O [2,4-dimethyl-2,4-pentanediol] | A | A | A | C | – | – | – | – | – | – | 0 | 0 | 1.2 | – | – | – | – | – |
| CC(O)CC(C)O (stereo not shown) [2,4-pentanediol] | A | A | A | C | 0 | 0 | 1.2 | 0 | 0 | 1.2 | 0 | 0 | 1.2 | 5 | 3 | – | – | – |
| CC(CCO)CCO [3-methyl-1,5-pentanediol] | A | A | A | C | – | – | – | – | – | – | 0 | 0 | 1.2 | – | – | – | – | – |
| Cc1ccc(O)c(O)c1 [4-methylcatechol] | A | A | A | A | – | – | – | – | – | – | 0.5 | 0 | 1.2 | – | – | – | – | – |
| CC(C)O [IPA, isopropyl alcohol, reference compound] | – | – | – | – | – | – | – | – | – | – | – | – | – | – | – | – | – | 90 |
| water [reference compound] | – | – | – | – | – | – | – | – | – | – | – | – | – | – | – | – | – | 100 |
